Assay results published in patent publication US20260159603A1.
Positions count from the first letter of the chain named. No constants are given. Whether binding was seen depends on the method and setting. Some entries that bind do so weakly or less than the wild type. For part of these data: Tags and fused reporters may be left off the sequences shown. Blank lines part the entries; values can stand above or below the binder they belong to.

By UniProt entry, the sequences of proteins in these tests, tags left out. Residues count along the entry.
UniProt P06127, residues 25-495: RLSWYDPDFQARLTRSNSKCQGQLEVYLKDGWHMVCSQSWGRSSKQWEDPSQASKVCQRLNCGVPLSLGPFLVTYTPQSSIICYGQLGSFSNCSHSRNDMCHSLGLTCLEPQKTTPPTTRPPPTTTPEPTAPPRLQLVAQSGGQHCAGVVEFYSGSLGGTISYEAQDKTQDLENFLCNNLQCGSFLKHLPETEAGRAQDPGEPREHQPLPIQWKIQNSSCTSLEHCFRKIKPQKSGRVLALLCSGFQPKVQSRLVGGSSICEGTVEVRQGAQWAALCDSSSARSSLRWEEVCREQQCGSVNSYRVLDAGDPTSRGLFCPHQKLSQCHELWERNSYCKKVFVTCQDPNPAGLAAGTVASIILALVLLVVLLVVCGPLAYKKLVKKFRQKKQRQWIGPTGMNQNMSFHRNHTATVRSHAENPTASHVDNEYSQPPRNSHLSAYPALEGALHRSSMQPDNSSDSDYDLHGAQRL

Tests used:
[1] = target: human CD5 on transfected HEK293T cells (human) (UniProt P06127); assay: flow cytometry, periplasmic extract on transfected HEK293T cells
CD5 on Jurkat cells = CD5 on Jurkat cells (UniProt P06127); assay: flow cytometry, VHH-Fc titrated on Jurkat cells

B1: ABTx322 (VHH, not shown: large carriers)
VHH: QLQLVESGGGLVQPGGSLRLSCAASGSDFLVDATTWFRQAPGNQREFVAIMDIGGVTEYADSVKGRFTISRDHTKNTVYLQMNSLKVEDTAVYYCNTRGLWGQGTLVTVSS
- binding [1]: binds

B2: ABTx322 VHH-Fc (Fc fusion, not shown: a dimerising Fc or GST)
chain: B1 VHH
- binding (CD5 on Jurkat cells): binds

B3: ABTx326 (VHH, not shown: large carriers)
VHH: QVQLVESGGGLVQPGGSLRLSCAASGRTFINYAAGWFRQAPGKEREFVARISRSGGRTDYADSVKGRFTISRDNAKSTVYLQMNSLRPEDTAVYYCAEATVWEFTDGADQYDYWGQGTQVTVSS
- binding [1]: binds

B5: ABTx318 VHH-Fc (Fc fusion, not shown: a dimerising Fc or GST)
chain: QVQLQESGGGSVQAGGSLRLSCAASGRAFSAYAMGWFRQAPGKEREFVAAINWNGDTALRWNGFATRYADSVKGRFTISRVIAKNTVNLQMNSLKPEDTAVYYCAADTVVSGSYYLAARAEDYEYWGQGTQVTVSS
- binding (CD5 on Jurkat cells): binds

B6: ABTx317 VHH-Fc (Fc fusion, not shown: a dimerising Fc or GST)
chain: QVQLVESGGGLVQAGASLRLSCAASGRTTYNMGWFRHAPGKDREFVAAIDLYGRATRYANSVKGRFTISRDNAKNTVYLQMNSLKPEDTAVYYCAADTSLPLGVLTKSQRMYGAWGQGTQVTVSS
- binding (CD5 on Jurkat cells): binds

B7: ABTx317 (VHH, not shown: large carriers)
VHH: B6 chain
- binding [1]: binds

B14: ABTx320 (VHH, not shown: large carriers)
VHH: QVQLVESGGGLVQAGGSLRLSCAASGPAFSSSGMGWFRQAPGKAREFVASMDWTGGSTYYGDSVKGRFTVSRDNAKMTVHLQMNSLRPEDTAVYYCARGTSGVAAVNLRGFFSWGPGTQVTVSS
- binding [1]: binds

B15: ABTx320 VHH-Fc (Fc fusion, not shown: a dimerising Fc or GST)
chain: B14 VHH
- binding (CD5 on Jurkat cells): binds

B18: ABTx324 (VHH, not shown: large carriers)
VHH: QVQLVESGGGLVQPGGSVRLSCATSGSIFSTNVMGWYRQAPGKEREFVALIRGGGSTHYADSVKGRFIISRENAKTTVYLQMNGLKPEDTAVYYCVIWLGSPGAMSDYWGQGTQVTVSS
- binding [1]: binds

B19: ABTx324 VHH-Fc (Fc fusion, not shown: a dimerising Fc or GST)
chain: B18 VHH
- binding (CD5 on Jurkat cells): binds

B20: ABTx316 VHH-Fc (Fc fusion, not shown: a dimerising Fc or GST)
chain: QVQLVESGGGLVQAGGSLRLSCAASGGTVSSYAMGWFRQAPGKEREFVAVISWSGGRTYYADSVKGRFTISRDNAKNTVNLQMNSLKPEDTAVYYCAADPWTSDSDYERLTMYDYWGQGTQVTVSS
- binding (CD5 on Jurkat cells): binds

B21: ABTx316 (VHH, not shown: large carriers)
VHH: B20 chain
- binding [1]: binds

B22: ABTx323 (VHH, not shown: large carriers)
VHH: QVQLQESGGGLVQAGGSLRLSCATSGITSSINVIGWYRQAPGKQRELVALVNSGGQTHYADSVKGRFTISRDNAKNTVFLQMNSLKPEDTAEYYCHGRYGIDNYWGEGTQVTVSS
- binding [1]: binds

B23: ABTx323 VHH-Fc (Fc fusion, not shown: a dimerising Fc or GST)
chain: B22 VHH
- binding (CD5 on Jurkat cells): binds

B24: ABTx319 VHH-Fc (Fc fusion, not shown: a dimerising Fc or GST)
chain: QVQLVESGGGLVQPGGSLRLSCAASGFTFSMYSMSWVRQAPGKRLEWVSSISTGARDTAYADSVKGRFTISRDNADNTLYLHMNNLKPEDTAVYYCANGDLRYGPDGYDYRGQGTQVTVSS
- binding (CD5 on Jurkat cells): binds

B25: ABTx319 (VHH, not shown: large carriers)
VHH: B24 chain
- binding [1]: binds

B26: ABTx321 (VHH, not shown: large carriers)
VHH: QLQLVESGGGLVQPGESLRLSCVVSGDIFSFVGWGWYRQAPGKQREVVAQISTGGLTNYADSVKGRFAISRDNAKRTVYLQMNSLKFEDTAVYYCNVPGHPWGQGTQVTVSS
- binding [1]: binds

B28: ABTx321 VHH-Fc (Fc fusion, not shown: a dimerising Fc or GST)
chain: B26 VHH
- binding (CD5 on Jurkat cells): binds

B30: ABTx325 (VHH, not shown: large carriers)
VHH: QVQLVESGGGLVQPGGSLRLSCAASGSDASTNNMAWYRQAPGKEREFVALIRTGGSTHVADSMKGRFTISRENAKNTVYLQMNSLKPEDTAVYYCVIWTGSPGALSDYWGQGTQVTVSS
- binding [1]: binds

B31: ABTx325 VHH-Fc (Fc fusion, not shown: a dimerising Fc or GST)
chain: B30 VHH
- binding (CD5 on Jurkat cells): binds

B32: ABTx315 (VHH, not shown: large carriers)
VHH: QVQLVESGGGLVQAGGSLRLSCAASGRTFGTYTMGWFRQAPGREREFVAAISWSAGRTYYADSMKGRFTISRDNAKNTVYLQMNSLKPEDTAVYYCAADPWTSDSDYDRLTMYDYWGQGTQVTVSS
- binding [1]: binds

B33: ABTx315 VHH-Fc (Fc fusion, not shown: a dimerising Fc or GST)
chain: B32 VHH
- binding (CD5 on Jurkat cells): binds

Now from value to binder:

- binding (CD5 on Jurkat cells): binds
B4: ABTx326 VHH-Fc (Fc fusion, not shown: a dimerising Fc or GST)
chain: B3 VHH

- binding (CD5 on Jurkat cells): binds
B8: ABTx331 VHH-Fc (Fc fusion, not shown: a dimerising Fc or GST)
chain: B6 chain with K107E, M111L

- binding [1]: binds
B9: ABTx331 (VHH, not shown: large carriers)
VHH: B6 chain with K107E, M111L

- binding (CD5 on Jurkat cells): binds
B10: ABTx327 VHH-Fc (Fc fusion, not shown: a dimerising Fc or GST)
chain: QVQLVESGGGLVQPGGSLRLSCVASGGTFSTYGMGWFRQAPGKEREFVAVITGSGVGTQYADSVKDRFTISRENAKNTVYLQMNTLKLEDTAVYYCVSGHRPGWAVIRADAYEYWGQGTQVTVSS

- binding [1]: binds
B11: ABTx327 (VHH, not shown: large carriers)
VHH: B10 chain

- binding (CD5 on Jurkat cells): binds
B12: ABTx330 VHH-Fc (Fc fusion, not shown: a dimerising Fc or GST)
chain: EVQLVESGGGLVQPGGSLRLSCAASGFPFSSSFMSWVRQAPGKGLEWVSTIYSDGSTYYADSVKGRFTISRDNAKKTAYLQMNSLKAEDTAVYYCATVTGSIRGQGTQVTVSS

- binding [1]: binds
B13: ABTx330 (VHH, not shown: large carriers)
VHH: B12 chain

- binding (CD5 on Jurkat cells): binds
B16: ABTx329 VHH-Fc (Fc fusion, not shown: a dimerising Fc or GST)
chain: QLQLVESGGGLVQPGESLRLSCAASGFSFSRVGMNWYRQAPGKERELVASISSDGSRTNYAHFVKGRFTISRDNVKNMVYLQMNSLKLEDTAVYYCNVPGNSWGQGTQVTVSS

- binding [1]: binds
B17: ABTx329 (VHH, not shown: large carriers)
VHH: B16 chain

- binding (CD5 on Jurkat cells): binds
B27: ABTx328 VHH-Fc (Fc fusion, not shown: a dimerising Fc or GST)
chain: B26 VHH with L2V, V32I, V47L, S52N, N58D, A68T, V97F, P101S

- binding [1]: binds
B29: ABTx328 (VHH, not shown: large carriers)
VHH: B26 VHH with L2V, V32I, V47L, S52N, N58D, A68T, V97F, P101S
